In all, about 33,000 sequences were measured (“E-score (-0.5 to 0.5)”: median about -0.016, highest 2% from about 0.3 on). This is one part of the list.

The target of the experiment is T1, Yer184c (UniProt P39961).
T1 sequence: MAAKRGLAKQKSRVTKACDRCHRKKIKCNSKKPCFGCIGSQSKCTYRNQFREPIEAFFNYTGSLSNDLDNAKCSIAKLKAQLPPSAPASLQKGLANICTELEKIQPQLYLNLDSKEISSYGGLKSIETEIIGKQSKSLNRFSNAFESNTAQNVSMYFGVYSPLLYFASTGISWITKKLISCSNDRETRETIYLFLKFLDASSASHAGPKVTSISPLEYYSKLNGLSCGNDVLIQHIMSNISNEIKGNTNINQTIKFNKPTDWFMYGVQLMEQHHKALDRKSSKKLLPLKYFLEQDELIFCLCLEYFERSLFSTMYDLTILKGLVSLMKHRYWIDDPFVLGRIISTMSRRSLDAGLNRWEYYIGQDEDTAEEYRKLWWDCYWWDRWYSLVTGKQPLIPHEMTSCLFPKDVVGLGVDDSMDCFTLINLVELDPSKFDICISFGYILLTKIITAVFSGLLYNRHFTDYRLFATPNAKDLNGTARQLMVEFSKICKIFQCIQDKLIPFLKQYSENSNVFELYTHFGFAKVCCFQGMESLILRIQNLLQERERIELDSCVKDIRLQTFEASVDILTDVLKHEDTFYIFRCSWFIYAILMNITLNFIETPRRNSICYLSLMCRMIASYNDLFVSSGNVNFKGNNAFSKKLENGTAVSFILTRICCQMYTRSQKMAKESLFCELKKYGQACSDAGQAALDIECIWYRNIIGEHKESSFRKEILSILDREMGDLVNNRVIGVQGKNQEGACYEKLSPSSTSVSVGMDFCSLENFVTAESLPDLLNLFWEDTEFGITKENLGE
The experiment in a line: PBM E-score (8-mer binding enrichment) (E-score (-0.5 to 0.5)); higher = stronger / more preferred TF binding. The note with it: protein concentration: 100 nM; construct: GST-full length. A digest of the protocol:
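E-scores (a modified Wilcoxon-Mann-Whitney statistic) were assigned by the Universal PBM Analysis Suite to every ungapped eight-base word pooled with its reverse complement. The input came from universal all-10-mer Agilent arrays made double-stranded by primer extension and probed with GST-tagged yeast transcription factors at about 100-200 nM. Fluorescent anti-GST detected bound protein, and masliner normalised the scans.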
For the sequence CAACTGGC, the “PBM E-score” value was -0.0795.

For CCTCCACC, the “PBM E-score” value is -0.245.

For GCTGACCC, the “PBM E-score” value is -0.208. The figure for GAGATCGA is 0.114; for ACGATCAA it is -0.002; for AATAACGT it is 0.0311.

In the case of CGTTAACA, the “PBM E-score” value is 0.0217. Turning to CGGGAGTC, the “PBM E-score” value was -0.0319. The figure for ATAACAGG is -0.0751; for AACACTTA it is -0.0758; for CATGGATA it is 0.0297. Then GCGAAAAC, with -0.00412. Then CGTGTCGC, with 0.0919; and ACAGTCAG, with -0.108; and ACAATTAA, with 0.228. As for CACCAACC, the “PBM E-score” value is -0.0529. With CACACTGG, the “PBM E-score” value is -0.225.

Turning to AGAAGCGA, the “PBM E-score” value is -0.0747. Then CAATCAGA, with -0.0962; and AAGATGAG, with -0.2; and GAGCTAGC, with -0.0773. The figure for GATAGTGA is 0.0506; for CCAAGGGG it is -0.117; for CTCGCTAC it is -0.125. Regarding GAGCCATA, the “PBM E-score” value is -0.0488.

As for AAACCATA, the “PBM E-score” value was determined as 0.0966. As for AAGAGCAC, the “PBM E-score” value was determined as 0.0565. Then CCACGCGA, with -0.161; and CAGAAGTA, with 0.0745. Then CTCGGCTC, with 0.237; and CATGGGGC, with -0.178. The figure for GCAGCCAA is -0.00398; for ATGAGTGA it is -0.0741; for TCAACCCA it is -0.106. As to AGGTAAGC, the “PBM E-score” value was -0.198. ATGTGAAG: the “PBM E-score” value came out at 0.143. Then TGTAGTAA, with 0.0976. On to AATTGAAA, for which the “PBM E-score” value amounted to 0.0463. As to CATCATTC, the “PBM E-score” value was -0.03. The figure for GATAATCA is 0.101; for CACTGAGG it is -0.0546; for CCAGAATC it is -0.00204.

Consider GCTCTAAC, for which the “PBM E-score” value was -0.2.

With ATTCTGAC, the “PBM E-score” value was -0.0112. Turning to ATCGACCG, the “PBM E-score” value turned out to be 0.166. Then CGAGTTGC, with 0.0678; and GCCTCACA, with -0.0173.

For the sequence CGAGAAGA, the “PBM E-score” value is -0.0036.

In the case of CGAAATCA, the “PBM E-score” value came out at 0.207. ATCGCGAA: the “PBM E-score” value came out at 0.273.

Regarding AAGGCGAT, the “PBM E-score” value is -0.0705. The figure for CTGGGCGA is -0.206; for ACAAACGA it is 0.193.

In the case of CCAGCCGG, the “PBM E-score” value is 0.24. The figure for TCAGTGGA is -0.181. The figure for AGTGATAG is -0.218; for TGCACGAA it is -0.00528; for TCAAAAAA it is 0.136. Turning to ACTGTTAT, the “PBM E-score” value worked out at 0.0534. Then AAGTAACT, with 0.00991; and ATCTGCAT, with -0.0604. Then CTAACCCC, with -0.208. The figure for GAGGGATA is -0.198.

With CGCTTACG, the “PBM E-score” value was -0.213. Then ATTACGTG, with -0.0902. The figure for GGATCTAA is 0.0653.

Take ACACTCCA: the “PBM E-score” value is -0.127. The figure for CTATCAGC is 0.0672; for CCATTGAA it is 0.107.

GGATCGTA: the “PBM E-score” value is -0.0887. Then GTCGGCTA, with 0.153; and AGTATCAT, with 0.0809; and AGTCTTTA, with -0.06.

As to CTCGCGAC, the “PBM E-score” value is -0.064. CCAAGACA: the “PBM E-score” value came out at 0.0888. Then ATAGATAG, with 0.0386. Then ACGCACAT, with -0.0963; and TACGGGCA, with 0.00579. The figure for CCGAAACA is 0.268; for ACACGTCA it is -0.15. Take ATTCCTCA: the “PBM E-score” value was found to be 0.0275. Then CTTGACTA, with 0.0268.

As for AGCTGGAA, the “PBM E-score” value is -0.213. Turning to CCAAGCAG, the “PBM E-score” value was -0.19. Take AGGCGTGG: the “PBM E-score” value is -0.313.

AACCAGTC: the “PBM E-score” value is -0.0109.

The values above are taken from the supplement of paper PMC3334620.
